In paper PMC10685657:
No constants are given. Whether binding was seen depends on the method and setting. In cells and extracts the contact can be indirect. Some results given as binding are weak or reduced against the parent protein; the word gives no strength.

Sequences of proteins named here, by UniProt entry; tags and fusion partners are left off. A change or cut given only in a name is not applied to a line headed by its entry. A line that says so, or that is headed by a name, gives the form on record, which may keep a tag or linker. Residues count along the entry.
UniProt Q15910: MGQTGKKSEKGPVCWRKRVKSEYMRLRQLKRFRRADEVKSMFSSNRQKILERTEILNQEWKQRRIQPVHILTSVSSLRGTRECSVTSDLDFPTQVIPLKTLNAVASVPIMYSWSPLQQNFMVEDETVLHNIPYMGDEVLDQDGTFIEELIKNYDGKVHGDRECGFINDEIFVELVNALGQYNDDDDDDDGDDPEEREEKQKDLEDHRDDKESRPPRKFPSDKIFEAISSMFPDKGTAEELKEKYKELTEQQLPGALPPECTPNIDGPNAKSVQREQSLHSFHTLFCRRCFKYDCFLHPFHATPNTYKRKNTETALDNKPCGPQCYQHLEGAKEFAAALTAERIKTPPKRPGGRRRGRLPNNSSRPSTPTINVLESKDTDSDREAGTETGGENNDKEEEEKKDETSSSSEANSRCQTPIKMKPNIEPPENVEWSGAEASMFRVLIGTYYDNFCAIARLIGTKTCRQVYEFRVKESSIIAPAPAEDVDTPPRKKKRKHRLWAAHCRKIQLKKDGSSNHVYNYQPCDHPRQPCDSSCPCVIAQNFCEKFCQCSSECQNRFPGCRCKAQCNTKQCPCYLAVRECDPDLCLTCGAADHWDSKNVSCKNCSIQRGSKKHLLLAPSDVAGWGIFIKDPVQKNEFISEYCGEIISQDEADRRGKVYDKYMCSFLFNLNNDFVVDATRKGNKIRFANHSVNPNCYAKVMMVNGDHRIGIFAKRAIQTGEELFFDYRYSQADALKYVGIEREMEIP
UniProt Q15022: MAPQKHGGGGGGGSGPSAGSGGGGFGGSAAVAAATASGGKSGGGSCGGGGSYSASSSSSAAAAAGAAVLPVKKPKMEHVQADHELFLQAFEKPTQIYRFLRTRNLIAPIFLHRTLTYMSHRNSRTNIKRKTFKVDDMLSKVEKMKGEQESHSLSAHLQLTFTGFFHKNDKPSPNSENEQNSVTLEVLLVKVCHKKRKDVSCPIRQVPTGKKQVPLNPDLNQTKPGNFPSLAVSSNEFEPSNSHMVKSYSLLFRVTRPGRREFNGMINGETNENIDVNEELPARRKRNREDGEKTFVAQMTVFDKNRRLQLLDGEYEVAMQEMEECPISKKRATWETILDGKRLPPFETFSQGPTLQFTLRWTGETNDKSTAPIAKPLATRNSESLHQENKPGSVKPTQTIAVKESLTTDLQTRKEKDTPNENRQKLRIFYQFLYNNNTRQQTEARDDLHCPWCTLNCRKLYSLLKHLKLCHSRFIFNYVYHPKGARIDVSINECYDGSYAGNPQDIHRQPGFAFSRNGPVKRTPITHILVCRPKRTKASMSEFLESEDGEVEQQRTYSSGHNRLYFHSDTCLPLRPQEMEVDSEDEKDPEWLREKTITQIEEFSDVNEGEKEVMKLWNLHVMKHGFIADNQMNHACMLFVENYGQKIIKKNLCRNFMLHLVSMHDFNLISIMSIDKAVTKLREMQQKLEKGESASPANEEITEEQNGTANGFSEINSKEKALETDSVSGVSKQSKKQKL
TRIP12 (human (endogenous in YT, NK92)) (Q14669, form named): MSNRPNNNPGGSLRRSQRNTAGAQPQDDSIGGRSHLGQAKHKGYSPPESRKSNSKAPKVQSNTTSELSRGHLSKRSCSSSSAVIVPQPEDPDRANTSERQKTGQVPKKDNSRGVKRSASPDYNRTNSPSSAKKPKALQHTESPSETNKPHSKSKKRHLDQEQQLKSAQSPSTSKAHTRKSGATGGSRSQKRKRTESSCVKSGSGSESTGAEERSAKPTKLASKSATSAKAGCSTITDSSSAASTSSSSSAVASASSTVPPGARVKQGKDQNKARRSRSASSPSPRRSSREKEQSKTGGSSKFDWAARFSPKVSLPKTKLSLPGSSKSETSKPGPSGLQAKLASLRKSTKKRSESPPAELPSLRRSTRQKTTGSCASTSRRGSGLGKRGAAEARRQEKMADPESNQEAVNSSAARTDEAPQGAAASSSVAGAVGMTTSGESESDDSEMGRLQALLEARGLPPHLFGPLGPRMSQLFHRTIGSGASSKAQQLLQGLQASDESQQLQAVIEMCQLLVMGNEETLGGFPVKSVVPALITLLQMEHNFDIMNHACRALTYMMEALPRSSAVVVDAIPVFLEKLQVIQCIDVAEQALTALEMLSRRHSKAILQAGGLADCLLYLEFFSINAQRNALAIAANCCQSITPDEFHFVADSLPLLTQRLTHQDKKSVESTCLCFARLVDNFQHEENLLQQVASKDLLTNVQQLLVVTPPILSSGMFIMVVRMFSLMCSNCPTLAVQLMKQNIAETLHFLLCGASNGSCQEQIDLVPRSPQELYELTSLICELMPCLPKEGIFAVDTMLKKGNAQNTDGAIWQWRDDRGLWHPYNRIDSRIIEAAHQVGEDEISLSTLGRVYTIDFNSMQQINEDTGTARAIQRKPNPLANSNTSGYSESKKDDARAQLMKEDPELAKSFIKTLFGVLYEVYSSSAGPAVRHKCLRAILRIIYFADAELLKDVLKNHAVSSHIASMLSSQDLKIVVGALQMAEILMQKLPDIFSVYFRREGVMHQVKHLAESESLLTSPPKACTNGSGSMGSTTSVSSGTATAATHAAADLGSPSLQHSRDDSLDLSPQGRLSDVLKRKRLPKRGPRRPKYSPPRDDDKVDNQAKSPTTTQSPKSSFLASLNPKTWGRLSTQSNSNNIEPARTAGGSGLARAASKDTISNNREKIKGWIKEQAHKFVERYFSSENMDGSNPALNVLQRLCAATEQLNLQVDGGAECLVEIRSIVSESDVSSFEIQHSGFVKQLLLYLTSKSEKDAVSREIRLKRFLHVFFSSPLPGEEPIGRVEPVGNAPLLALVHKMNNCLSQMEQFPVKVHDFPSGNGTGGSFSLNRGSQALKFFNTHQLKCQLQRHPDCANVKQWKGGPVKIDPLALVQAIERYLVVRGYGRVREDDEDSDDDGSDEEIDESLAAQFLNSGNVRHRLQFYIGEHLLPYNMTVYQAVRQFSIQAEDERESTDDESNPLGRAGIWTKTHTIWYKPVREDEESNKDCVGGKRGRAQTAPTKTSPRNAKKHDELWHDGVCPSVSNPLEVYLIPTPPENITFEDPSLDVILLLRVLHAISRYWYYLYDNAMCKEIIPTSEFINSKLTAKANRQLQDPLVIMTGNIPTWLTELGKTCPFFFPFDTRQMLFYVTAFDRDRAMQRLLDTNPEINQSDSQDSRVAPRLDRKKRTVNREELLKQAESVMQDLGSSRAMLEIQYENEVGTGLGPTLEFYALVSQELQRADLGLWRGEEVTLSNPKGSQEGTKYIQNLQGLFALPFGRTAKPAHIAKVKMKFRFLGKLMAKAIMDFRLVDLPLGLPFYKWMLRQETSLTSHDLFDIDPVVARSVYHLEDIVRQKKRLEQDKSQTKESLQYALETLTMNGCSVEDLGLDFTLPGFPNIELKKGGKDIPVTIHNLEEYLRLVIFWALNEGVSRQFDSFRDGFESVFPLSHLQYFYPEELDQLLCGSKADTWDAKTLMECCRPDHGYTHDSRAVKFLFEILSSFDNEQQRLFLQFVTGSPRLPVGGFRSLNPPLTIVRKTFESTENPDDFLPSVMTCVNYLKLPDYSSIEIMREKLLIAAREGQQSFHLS
UniProt P10809, residues 27-573: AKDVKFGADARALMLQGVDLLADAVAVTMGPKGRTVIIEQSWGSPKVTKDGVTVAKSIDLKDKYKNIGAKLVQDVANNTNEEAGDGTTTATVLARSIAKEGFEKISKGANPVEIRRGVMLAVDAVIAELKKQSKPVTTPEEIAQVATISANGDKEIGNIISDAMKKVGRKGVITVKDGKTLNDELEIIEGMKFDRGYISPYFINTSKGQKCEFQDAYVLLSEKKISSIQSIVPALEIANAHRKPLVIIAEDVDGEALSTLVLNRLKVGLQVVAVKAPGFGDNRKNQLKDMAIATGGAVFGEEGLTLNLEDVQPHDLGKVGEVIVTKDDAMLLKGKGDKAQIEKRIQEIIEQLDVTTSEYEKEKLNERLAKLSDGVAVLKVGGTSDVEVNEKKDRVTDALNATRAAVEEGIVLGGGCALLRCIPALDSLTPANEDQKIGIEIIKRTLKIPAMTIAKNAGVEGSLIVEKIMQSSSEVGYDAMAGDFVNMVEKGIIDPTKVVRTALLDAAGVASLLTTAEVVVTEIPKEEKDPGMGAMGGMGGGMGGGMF

Assays:
GFP-EZH2 K634R = GFP-EZH2 K634R (UniProt Q15910); experiment: co-IP; HEK293T cells harvested 48 h after transfection (EZH2 or its mutants; with or without TRIP12 overexpression); RIPA lysis with PMSF, sonication; antibody overnight at 4 °C, protein A/G beads; immunoblot
GFP-EZH2 T487A = GFP-EZH2 T487A (UniProt Q15910); experiment: as above
GFP-EZH2 wildtype = GFP-EZH2 wildtype (UniProt Q15910); experiment: as above
[1] = target: EZH2 (human (endogenous in YT, NK92, NKYS)) (UniProt Q15910); experiment: co-IP; endogenous proteins in ENKTL cell lines (YT, NK92, NKYS); RIPA lysis with PMSF, sonication; antibody overnight at 4 °C, protein A/G beads 1 h at 4 °C; immunoblot
[2] = target: SUZ12 (human (endogenous in YT, NKYS, HEK293T)) (UniProt Q15022); experiment: as above
[3] = target: TRIP12 (human (endogenous in YT, NK92)) (UniProt Q14669); experiment: as above

Measured: binding

HSP60 (in HEK293T cells) (from UniProt P10809 27-573)
binds: GFP-EZH2 K634R | GFP-EZH2 T487A | GFP-EZH2 wildtype

HSP60 (from UniProt P10809 27-573)
binds: [1] | [2] | [3]
